Source: paper PMC8861016
No constants are given. Whether binding was seen depends on the method and setting. Binding seen in cells or lysates may run through a third protein. Some entries that bind do so weakly or less than the wild type.

By UniProt entry, the sequences of proteins in these tests, tags left out. Residues count along the entry.
UniProt O75581, residues 20-1613: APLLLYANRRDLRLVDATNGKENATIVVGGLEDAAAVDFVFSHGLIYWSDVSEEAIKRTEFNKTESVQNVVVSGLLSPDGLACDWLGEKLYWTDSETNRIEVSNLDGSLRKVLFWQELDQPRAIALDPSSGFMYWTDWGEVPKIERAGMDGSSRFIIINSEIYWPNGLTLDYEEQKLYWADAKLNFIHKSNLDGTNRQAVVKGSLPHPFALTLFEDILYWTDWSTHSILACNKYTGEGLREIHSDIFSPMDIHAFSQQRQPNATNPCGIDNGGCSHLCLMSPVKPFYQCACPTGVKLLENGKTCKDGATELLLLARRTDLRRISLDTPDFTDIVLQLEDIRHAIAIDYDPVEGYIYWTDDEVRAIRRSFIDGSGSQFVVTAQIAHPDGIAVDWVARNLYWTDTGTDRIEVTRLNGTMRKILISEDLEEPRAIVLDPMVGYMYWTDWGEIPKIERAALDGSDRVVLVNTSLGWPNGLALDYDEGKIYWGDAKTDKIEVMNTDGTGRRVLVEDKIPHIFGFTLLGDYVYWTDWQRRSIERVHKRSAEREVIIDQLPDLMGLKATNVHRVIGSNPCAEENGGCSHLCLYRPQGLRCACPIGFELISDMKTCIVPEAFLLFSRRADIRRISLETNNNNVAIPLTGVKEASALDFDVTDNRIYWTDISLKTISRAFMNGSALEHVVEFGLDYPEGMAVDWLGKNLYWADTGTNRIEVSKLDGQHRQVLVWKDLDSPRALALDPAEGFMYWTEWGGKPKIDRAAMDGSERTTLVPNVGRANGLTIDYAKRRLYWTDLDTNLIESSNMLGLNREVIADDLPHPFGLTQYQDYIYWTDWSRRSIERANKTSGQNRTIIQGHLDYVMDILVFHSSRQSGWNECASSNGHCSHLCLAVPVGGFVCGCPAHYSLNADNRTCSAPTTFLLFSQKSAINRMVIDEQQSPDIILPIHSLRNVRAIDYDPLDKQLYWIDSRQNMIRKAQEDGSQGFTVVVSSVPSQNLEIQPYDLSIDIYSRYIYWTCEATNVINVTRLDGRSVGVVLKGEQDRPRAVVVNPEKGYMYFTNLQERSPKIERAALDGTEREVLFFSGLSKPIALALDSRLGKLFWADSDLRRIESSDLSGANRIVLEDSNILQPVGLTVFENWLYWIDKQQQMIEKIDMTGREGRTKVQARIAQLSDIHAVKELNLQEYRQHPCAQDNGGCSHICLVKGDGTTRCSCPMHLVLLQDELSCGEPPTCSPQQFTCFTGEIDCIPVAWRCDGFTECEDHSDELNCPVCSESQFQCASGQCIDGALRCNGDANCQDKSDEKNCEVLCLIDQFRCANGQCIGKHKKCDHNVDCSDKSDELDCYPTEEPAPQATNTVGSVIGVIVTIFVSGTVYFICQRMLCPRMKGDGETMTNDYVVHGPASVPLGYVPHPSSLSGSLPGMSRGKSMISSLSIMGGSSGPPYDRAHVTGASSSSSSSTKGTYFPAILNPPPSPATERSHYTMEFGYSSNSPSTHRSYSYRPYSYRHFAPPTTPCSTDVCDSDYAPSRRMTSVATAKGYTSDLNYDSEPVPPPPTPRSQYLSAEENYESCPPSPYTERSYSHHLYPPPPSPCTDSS
UniProt P16070, residues 21-742: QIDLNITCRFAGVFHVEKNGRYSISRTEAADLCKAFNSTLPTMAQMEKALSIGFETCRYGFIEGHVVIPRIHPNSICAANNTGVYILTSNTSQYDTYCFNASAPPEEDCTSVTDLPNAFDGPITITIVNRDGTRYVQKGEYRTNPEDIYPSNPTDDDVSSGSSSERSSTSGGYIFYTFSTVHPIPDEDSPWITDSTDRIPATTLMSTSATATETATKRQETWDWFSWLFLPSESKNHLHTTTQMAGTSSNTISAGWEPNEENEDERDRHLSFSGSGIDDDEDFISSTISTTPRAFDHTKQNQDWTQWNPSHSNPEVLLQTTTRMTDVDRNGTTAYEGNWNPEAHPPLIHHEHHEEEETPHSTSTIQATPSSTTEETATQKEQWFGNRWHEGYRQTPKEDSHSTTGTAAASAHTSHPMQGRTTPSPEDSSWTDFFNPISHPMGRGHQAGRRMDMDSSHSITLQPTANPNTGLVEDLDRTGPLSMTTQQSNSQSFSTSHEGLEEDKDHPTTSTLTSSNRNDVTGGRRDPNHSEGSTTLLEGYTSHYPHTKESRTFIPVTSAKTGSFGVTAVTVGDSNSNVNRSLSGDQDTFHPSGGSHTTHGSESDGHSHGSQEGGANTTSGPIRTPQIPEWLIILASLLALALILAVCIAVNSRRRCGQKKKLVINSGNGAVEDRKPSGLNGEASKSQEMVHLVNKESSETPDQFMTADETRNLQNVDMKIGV

Target: LRP6 (human (endogenous in HeLa)) (UniProt O75581)
Test: proximity ligation; in situ Duolink PLA on fixed, permeabilised HeLa cells, endogenous proteins; primary antibodies against CD44-ICD and LRP6, DVL2 or AXIN; cells treated with Wnt3a CM for 15 and 45 min, compared to control CM

**Q.** For “CD44 (from UniProt P16070 21-742) (receptor)”, which binding is on record?
**A.** binds
